The other results are listed elsewhere or left out.
Compound: Cc1cc(ccc1-c1ccccc1)C(=O)N1CCCN(CC1)C(=O)CCl [compound 10]
Experiment: probe-labelled cysteine peptide fold change vs DMSO (competition) (log2 fold change); higher = less target engagement (more negative = stronger competition)
Details: THP-1, incubation time: 4 h
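Further: competitive profiling in live THP-1 cells: cysteine peptides tagged with an iodoacetamide desthiobiotin (IA-DTB) probe, intensity after compound treatment relative to DMSO-treated cells.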

Chains of the proteins cited; added tags and fusions are not shown. Lines headed by an entry give the natural chain unless they say otherwise; changes in a name come on top.
UniProt Q8TEX9: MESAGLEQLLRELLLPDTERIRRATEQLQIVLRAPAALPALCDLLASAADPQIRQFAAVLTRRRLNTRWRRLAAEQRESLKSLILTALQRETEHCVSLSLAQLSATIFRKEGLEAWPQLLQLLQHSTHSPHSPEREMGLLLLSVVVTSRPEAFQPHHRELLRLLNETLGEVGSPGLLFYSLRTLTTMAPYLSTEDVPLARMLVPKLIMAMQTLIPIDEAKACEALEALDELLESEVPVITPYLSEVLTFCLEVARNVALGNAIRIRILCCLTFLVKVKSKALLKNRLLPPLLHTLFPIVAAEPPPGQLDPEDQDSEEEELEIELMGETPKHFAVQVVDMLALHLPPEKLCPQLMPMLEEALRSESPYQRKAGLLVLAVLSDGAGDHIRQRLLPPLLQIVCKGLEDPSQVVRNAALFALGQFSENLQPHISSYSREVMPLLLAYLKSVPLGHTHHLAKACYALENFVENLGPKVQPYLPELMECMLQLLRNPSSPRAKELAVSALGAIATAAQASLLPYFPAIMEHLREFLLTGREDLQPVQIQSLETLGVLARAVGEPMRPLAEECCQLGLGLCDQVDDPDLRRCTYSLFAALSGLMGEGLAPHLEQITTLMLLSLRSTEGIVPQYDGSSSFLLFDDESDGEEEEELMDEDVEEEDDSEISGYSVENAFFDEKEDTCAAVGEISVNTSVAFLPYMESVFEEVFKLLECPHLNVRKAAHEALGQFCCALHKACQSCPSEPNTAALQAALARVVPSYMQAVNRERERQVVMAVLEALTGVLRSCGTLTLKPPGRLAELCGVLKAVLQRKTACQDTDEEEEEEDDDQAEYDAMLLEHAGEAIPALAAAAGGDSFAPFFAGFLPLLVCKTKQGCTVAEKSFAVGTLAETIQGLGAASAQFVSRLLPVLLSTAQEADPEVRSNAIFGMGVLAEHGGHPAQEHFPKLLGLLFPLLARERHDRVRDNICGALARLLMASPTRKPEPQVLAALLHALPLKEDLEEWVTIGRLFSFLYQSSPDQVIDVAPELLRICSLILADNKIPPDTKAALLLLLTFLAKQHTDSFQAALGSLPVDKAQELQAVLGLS
UniProt Q9UL03, whole entry, looked up: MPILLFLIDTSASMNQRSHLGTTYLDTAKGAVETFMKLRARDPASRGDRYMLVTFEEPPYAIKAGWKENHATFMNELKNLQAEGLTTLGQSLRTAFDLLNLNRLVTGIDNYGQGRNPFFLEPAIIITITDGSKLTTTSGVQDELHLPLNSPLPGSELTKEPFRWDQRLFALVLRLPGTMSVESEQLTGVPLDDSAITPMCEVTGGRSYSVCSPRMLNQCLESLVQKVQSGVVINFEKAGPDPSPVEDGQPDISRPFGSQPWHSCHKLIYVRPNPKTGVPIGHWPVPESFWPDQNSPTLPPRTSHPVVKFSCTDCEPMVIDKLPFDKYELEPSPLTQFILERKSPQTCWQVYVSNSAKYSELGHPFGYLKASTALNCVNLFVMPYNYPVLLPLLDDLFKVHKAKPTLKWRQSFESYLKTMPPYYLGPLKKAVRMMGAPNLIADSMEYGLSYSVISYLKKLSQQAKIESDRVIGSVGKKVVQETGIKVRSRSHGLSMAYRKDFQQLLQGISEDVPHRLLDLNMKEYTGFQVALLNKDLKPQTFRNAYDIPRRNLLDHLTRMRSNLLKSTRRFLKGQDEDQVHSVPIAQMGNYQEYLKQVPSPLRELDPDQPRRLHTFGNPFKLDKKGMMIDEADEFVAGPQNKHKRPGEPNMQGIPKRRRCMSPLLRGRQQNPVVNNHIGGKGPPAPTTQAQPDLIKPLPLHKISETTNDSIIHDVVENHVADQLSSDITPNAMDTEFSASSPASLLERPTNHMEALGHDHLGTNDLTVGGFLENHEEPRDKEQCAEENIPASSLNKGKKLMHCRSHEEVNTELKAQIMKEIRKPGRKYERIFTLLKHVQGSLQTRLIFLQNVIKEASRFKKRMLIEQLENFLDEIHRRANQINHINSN
UniProt P20702, whole entry, looked up: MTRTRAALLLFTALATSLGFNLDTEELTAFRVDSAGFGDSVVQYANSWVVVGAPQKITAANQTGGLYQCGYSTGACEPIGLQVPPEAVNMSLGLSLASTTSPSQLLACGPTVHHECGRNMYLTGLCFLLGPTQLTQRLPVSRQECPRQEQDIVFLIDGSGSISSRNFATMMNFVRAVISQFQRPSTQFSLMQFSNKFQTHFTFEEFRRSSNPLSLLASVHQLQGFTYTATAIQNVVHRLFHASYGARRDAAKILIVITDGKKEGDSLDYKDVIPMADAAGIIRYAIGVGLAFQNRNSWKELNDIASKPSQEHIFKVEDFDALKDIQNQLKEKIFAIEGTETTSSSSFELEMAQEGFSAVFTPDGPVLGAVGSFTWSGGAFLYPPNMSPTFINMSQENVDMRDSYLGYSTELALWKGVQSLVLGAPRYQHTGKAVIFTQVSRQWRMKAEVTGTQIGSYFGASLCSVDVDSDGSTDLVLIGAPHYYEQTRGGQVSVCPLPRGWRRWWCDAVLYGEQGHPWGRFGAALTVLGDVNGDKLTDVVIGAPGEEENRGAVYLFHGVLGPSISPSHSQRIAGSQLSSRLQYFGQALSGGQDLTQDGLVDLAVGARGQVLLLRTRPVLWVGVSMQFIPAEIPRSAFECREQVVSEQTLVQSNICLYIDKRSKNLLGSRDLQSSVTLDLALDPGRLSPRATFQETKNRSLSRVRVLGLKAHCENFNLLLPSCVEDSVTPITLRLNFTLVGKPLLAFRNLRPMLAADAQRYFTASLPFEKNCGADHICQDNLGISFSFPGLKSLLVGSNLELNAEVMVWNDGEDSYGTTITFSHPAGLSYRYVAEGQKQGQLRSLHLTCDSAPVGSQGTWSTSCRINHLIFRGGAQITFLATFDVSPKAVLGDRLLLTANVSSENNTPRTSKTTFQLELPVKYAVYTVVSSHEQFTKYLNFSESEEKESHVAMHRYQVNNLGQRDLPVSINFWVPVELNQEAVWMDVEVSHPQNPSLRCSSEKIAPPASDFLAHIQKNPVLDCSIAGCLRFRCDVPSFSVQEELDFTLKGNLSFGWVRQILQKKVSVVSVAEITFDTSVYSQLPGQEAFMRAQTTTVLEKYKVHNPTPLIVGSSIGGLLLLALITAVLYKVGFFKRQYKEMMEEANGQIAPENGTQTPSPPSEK
UniProt Q6P9B9, whole entry, looked up: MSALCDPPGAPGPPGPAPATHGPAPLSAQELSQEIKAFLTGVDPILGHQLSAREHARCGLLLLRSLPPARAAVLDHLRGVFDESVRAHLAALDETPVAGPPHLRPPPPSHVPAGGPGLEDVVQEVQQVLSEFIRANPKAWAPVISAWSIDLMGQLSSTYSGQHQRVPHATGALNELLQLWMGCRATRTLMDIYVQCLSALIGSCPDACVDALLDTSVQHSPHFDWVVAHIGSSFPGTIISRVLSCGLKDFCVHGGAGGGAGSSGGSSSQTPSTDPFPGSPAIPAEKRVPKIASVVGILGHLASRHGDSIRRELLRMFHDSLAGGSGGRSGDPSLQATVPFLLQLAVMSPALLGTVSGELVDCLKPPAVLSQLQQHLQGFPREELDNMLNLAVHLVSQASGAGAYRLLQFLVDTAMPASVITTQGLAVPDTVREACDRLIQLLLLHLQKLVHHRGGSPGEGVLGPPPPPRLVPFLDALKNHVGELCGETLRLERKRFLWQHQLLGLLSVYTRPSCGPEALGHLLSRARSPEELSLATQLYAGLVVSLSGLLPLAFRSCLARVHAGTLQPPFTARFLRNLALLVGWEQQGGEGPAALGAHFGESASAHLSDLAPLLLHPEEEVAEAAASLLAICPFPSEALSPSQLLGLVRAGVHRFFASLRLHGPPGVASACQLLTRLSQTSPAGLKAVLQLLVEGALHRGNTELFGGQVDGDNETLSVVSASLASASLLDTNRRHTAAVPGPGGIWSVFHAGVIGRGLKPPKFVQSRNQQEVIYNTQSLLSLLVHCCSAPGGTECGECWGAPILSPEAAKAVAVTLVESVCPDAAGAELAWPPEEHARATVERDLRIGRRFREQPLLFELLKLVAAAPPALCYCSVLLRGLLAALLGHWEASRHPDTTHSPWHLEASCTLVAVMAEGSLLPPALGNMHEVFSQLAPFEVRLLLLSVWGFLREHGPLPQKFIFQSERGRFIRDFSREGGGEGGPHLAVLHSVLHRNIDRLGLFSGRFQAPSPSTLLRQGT
UniProt P26010: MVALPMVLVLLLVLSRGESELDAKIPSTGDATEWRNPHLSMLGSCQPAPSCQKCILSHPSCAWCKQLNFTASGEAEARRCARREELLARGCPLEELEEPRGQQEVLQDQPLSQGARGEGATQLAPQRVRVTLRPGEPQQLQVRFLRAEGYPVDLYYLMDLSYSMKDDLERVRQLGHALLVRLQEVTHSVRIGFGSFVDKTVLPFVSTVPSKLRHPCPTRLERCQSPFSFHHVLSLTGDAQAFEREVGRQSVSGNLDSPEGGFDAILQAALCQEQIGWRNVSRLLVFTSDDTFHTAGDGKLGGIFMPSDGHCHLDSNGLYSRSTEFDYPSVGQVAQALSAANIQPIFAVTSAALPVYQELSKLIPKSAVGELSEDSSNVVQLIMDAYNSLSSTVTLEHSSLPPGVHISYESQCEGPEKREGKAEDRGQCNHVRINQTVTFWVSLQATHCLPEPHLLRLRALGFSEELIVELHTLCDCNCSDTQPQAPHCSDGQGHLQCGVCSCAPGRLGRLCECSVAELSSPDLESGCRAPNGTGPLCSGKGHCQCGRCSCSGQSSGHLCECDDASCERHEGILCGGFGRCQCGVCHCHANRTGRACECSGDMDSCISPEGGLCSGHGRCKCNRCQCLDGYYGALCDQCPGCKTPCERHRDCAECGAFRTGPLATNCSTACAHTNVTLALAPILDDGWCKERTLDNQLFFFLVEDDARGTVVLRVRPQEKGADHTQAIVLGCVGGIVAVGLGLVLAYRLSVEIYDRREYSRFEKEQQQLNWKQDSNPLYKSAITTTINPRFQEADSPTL
UniProt P05556, whole entry, looked up: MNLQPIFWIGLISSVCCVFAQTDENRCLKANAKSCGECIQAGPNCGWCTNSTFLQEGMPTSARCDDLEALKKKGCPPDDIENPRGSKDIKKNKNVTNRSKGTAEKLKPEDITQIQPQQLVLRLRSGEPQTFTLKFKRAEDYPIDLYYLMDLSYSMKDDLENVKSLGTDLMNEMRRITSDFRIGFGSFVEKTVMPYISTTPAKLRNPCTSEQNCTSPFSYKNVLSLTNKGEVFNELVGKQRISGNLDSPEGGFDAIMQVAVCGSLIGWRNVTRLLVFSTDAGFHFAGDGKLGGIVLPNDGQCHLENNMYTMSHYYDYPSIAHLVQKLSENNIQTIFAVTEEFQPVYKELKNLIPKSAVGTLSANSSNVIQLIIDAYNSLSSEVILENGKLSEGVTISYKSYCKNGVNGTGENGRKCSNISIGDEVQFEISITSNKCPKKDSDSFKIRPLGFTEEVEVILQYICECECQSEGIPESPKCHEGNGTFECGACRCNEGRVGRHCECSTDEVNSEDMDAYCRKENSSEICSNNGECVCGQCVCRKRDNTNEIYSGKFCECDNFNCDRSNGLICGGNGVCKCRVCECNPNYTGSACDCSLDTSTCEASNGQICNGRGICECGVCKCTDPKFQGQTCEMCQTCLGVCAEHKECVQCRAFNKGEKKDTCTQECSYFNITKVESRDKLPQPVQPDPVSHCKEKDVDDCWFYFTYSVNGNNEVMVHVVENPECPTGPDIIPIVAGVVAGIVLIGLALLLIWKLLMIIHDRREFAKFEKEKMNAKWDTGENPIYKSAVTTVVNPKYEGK
UniProt Q02556: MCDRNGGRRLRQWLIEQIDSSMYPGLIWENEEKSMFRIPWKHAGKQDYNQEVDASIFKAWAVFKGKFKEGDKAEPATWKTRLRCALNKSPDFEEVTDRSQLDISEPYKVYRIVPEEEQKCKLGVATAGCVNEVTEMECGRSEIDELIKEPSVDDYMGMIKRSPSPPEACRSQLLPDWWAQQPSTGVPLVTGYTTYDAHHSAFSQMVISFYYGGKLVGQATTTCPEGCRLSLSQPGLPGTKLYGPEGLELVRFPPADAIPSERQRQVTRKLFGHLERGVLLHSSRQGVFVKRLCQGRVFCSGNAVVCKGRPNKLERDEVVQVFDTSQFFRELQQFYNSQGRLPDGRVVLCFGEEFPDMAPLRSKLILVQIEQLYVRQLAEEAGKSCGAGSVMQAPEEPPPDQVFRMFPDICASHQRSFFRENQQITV

Target | probe-labelled cysteine peptide fold change (10 µM) | probe-labelled cysteine peptide fold change (50 µM)
IPO4_Q8TEX9_725+726_AAHEALGQFCCALHK (UniProt Q8TEX9) | -0.205 | -0.838
INTS2_Q9H0H0_272_GMVVEECHLPGLGVALTLDHTK (UniProt Q9H0H0) | 0.141 | 0.36
IPO5_O00410_915_YAEYFLRPMLQYVCDNSPEVR (UniProt O00410) | 0.0323 | -0.0774
ITGAL_P20701_998_IQPSIHDHNIPTLEAVVGVPQPPSEGPITHQWSVQMEPPVPCHYEDLER (UniProt P20701) | 0.64 | 0.742
INTS6_Q9UL03_347_KSPQTCWQVYVSNSAK (UniProt Q9UL03) | 0.118 | -0.0141
ITGAX_P20702_722_AHCENFNLLLPSCVEDSVTPITLR (UniProt P20702) | 0.111 | 0.368
INPPL1_O15357_689_TNVPSWCDR (UniProt O15357) | 0.0817 | -0.00302
INTS5_Q6P9B9_821_AVAVTLVESVCPDAAGAELAWPPEEHAR (UniProt Q6P9B9) | 0.194 | 0.0309
ITGB7_P26010_428_GQCNHVR (UniProt P26010) | 0.116 | 0.225
ITGAL_P20701_1154_GVPNGIPAEDSEQLASGQEAGDPGCLK (UniProt P20701) | -0.125 | -0.0169
IRF2BP2_Q7Z5L9_19_RQSCYLCDLPR (UniProt Q7Z5L9) | -0.261 | -0.459
ITGB1_P05556_636_FQGQTCEMCQTCLGVCAEHK (UniProt P05556) | -0.0931 | -0.0965
IRF8_Q02556_410_MFPDICASHQR (UniProt Q02556) | -0.309 | -0.457

Given with tabs: entries from further up.
Target	probe-labelled cysteine peptide fold change (10 µM)	probe-labelled cysteine peptide fold change (50 µM)
ITGAL_P20701_998_IQPSIHDHNIPTLEAVVGVPQPPSEGPITHQWSVQMEPPVPCHYEDLER (UniProt P20701)	0.64	0.742
IRF8_Q02556_410_MFPDICASHQR (UniProt Q02556)	-0.309	-0.457

Source: the supplement of paper PMC12067093, “Discovery and optimisation of a covalent ligand for TRIM25 and its application to targeted protein ubiquitination” (Chemical Science, 2025)
